Measurements as given in paper PMC9715706.

Amino acid sequences for entries named in this document (tags omitted). A change or cut given only in a name is not applied to a line headed by its entry.
UniProt P48546: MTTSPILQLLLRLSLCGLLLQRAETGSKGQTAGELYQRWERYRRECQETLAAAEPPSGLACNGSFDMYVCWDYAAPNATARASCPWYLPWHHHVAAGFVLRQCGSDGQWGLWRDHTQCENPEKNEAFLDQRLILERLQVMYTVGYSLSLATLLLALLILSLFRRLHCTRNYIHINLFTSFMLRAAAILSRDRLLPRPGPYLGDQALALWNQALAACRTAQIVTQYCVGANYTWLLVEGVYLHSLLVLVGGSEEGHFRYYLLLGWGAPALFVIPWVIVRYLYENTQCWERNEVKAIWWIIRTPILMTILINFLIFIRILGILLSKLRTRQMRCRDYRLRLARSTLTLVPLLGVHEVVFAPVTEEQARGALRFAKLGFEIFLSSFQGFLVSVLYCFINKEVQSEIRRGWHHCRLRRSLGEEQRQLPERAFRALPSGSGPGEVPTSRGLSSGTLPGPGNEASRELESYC
UniProt P43220: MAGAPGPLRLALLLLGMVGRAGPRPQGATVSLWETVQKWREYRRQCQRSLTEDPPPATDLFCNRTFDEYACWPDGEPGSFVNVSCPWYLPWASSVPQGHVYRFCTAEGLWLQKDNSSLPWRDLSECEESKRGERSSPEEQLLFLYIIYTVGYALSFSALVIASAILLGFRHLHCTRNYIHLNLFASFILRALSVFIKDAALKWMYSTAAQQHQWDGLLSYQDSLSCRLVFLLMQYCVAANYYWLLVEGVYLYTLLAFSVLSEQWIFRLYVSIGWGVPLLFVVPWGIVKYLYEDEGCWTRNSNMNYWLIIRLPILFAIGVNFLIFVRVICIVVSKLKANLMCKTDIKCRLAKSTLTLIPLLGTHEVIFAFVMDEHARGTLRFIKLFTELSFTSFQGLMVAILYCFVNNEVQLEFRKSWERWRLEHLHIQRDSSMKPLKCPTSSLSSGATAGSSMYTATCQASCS

Tests used:
[1] = molecular target: adeno-A2A receptor fused to a nanoluciferase (human) (UniProt P29274); experiment: FRET or BRET; saturation BRET; constant 20 nM BR1-NLuc or Adora-NLuc plasmid coexpressed with 0-50 nM BR2-mCitrine plasmid in Sf21 cell-free lysate; Nano-Glo substrate added to 5 µL vesicular fraction; n = 3
[2] = molecular target: gastric inhibitory polypeptide receptor (UniProt P48546); experiment: proximity ligation; proteins coexpressed in Sf21 cell-free lysate; vesicular fraction in sucrose on IBIDI µ-slides; Duolink in situ Red kit Mouse/Rabbit with primary antibodies to BR1, BR2 or His-tag; confocal laser scanning microscopy
[3] = molecular target: glucagon-like peptide 1 receptor (UniProt P43220); experiment: as above
[4] = molecular target: nicotinic acetylcholine receptor subunit delta (UniProt Q07001); experiment: as above

binding [1]: no binding
binding [2]: no binding
binding [3]: no binding
binding [4]: no binding
B1: GABAB subunit 2 fused with a fluorescent mCitrine (receptor, UniProt O75899 42-941)
chain: WARGAPRPPPSSPPLSIMGLMPLTKEVAKGSIGRGVLPAVELAIEQIRNESLLRPYFLDLRLYDTECDNAKGLKAFYDAIKYGPNHLMVFGGVCPSVTSIIAESLQGWNLVQLSFAATTPVLADKKKYPYFFRTVPSDNAVNPAILKLLKHYQWKRVGTLTQDVQRFSEVRNDLTGVLYGEDIEISDTESFSNDPCTSVKKLKGNDVRIILGQFDQNMAAKVFCCAYEENMYGSKYQWIIPGWYEPSWWEQVHTEANSSRCLRKNLLAAMEGYIGVDFEPLSSKQIKTISGKTPQQYEREYNNKRSGVGPSKFHGYAYDGIWVIAKTLQRAMETLHASSRHQRIQDFNYTDHTLGRIILNAMNETNFFGVTGQVVFRNGERMGTIKFTQFQDSREVKVGEYNAVADTLEIINDTIRFQGSEPPKDKTIILEQLRKISLPLYSILSALTILGMIMASAFLFFNIKNRNQKLIKMSSPYMNNLIILGGMLSYASIFLFGLDGSFVSEKTFETLCTVRTWILTVGYTTAFGAMFAKTWRVHAIFKNVKMKKKIIKDQKLLVIVGGMLLIDLCILICWQAVDPLRRTVEKYSMEPDPAGRDISIRPLLEHCENTHMTIWLGIVYAYKGLLMLFGCFLAWETRNVSIPALNDSKYIGMSVYNVGIMCIIGAAVSFLTRDQPNVQFCIVALVIIFCSTITLCLVFVPKLITLRTNPDAATQNRRFQFTQNQKKEDSKTSTSVTSVNQASTSRLEGLQSENHRLRMKITELDKDLEEVTMQLQDTPEKTTYIKQNHYQELNDILNLGNFTESTDGGKAILKNHLDQNPQLQWNTTEPSRTCKDPIEDINSPEHIQRRLSLQLPILHHAYLPSIGGVDASCVSPCVSPTASPRHRHVPPSFRVMVSGL

Results are given in words; binding and its absence hold for the method and conditions named. Binding seen in cells or lysates may run through a third protein. Where a sequence is shown, tags or fusion partners need not be part of it.
